Measurements as given in patent US9513287.
Results are given in words; binding and its absence hold for the method and conditions named.

Tests used:
[1] = target: Shiga toxin 2a (Stx2a) holotoxin (Escherichia coli) (UniProt P09385); assay: direct ELISA (FIG. 13B)
Shiga toxin 1 (Stx1) [2] = target: Shiga toxin 1 (Stx1) (UniProt P08026); assay: direct ELISA (FIG. 13B)
[3] = target: Shiga toxin 2a (Stx2a) holotoxin (Escherichia coli) (UniProt P09385); assay: direct ELISA, wells coated with 250 ng/mL toxin, luminescent readout
Shiga toxin 1 (Stx1) [4] = target: Shiga toxin 1 (Stx1) (UniProt P08026); assay: as above

B1: monoclonal antibody Stx2f-1 (antibody, V domains shown)
VH: QVQLQQSGPEVVRPGVSVKISCKGSGYTFTDYAIHWVKQSHAKSLEWIGFISTYNGNPNYNKEFKGKATVTVDKSSSTAYLELARLTSEDSAIYFCARDFYGSSSWFAYWGQGTLVTVSA
VL: DIVLTQTPASLAVSLGQRATISCRASESVDSYGDDFMHWYQQKPGQPPKLLIYRVSNLESGIPVRFSGSGSRTDFTLTINPVEADDDATYYCQQSNENPYTFGGGTKLEIK
**Q.** With B1 as the binder, how does the binding [1] read?
**A.** no binding (tested: antigen coated at 250 ng/mL)

**Q.** And the binding (Shiga toxin 1 (Stx1) [2])?
**A.** no binding (tested: antigen coated at 250 ng/mL)

**Q.** What about the binding [3] of the same binder?
**A.** no binding

**Q.** What about the binding (Shiga toxin 1 (Stx1) [4]) of the same binder?
**A.** no binding
